In PMC11885570 one finds binding data, which are given here for 3 molecules.

The chains behind the UniProt entries cited, without tags or fusion partners.
UniProt O60488: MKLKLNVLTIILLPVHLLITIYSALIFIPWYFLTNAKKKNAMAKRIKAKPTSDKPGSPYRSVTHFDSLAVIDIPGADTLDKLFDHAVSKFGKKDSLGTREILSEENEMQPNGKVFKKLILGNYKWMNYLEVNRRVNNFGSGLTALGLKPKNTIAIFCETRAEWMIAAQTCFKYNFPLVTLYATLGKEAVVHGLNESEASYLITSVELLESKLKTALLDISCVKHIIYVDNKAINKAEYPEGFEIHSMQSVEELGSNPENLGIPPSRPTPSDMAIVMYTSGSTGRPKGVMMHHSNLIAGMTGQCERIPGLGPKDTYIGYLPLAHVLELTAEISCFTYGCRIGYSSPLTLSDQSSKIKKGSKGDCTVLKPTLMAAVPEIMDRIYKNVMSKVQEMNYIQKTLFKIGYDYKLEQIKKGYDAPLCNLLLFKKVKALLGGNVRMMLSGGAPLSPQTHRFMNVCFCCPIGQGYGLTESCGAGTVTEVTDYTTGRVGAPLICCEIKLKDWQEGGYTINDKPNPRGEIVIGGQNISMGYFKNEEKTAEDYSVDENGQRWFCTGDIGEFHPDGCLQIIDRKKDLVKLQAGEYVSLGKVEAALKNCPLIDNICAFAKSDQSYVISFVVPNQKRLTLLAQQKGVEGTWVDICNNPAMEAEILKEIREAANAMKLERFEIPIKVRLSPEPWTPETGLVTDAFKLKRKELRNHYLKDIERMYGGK
UniProt O14929: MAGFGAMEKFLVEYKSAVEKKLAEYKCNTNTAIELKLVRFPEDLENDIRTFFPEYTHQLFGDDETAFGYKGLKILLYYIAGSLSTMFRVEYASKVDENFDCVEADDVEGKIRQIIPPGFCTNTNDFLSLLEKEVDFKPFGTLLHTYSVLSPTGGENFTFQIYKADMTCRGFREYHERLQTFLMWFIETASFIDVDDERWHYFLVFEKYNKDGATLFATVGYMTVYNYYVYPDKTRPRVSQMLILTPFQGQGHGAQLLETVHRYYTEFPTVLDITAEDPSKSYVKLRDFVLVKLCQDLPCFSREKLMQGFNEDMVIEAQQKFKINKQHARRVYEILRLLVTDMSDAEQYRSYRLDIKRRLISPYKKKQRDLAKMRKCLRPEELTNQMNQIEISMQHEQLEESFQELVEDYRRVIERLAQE

Assay [1] has as its target acyl-CoA synthase long-chain family member 4 (ACSL4), endogenous in NPC cells (human (endogenous in NPC cells)) (UniProt O60488). The assay is described as follows: affinity purification with mass spectrometry; SUNE1 cell lysate with ACSL4 antibody and magnetic beads overnight at 4 °C, three washes, mass spectrometry of the bound proteins.
The target is the same in assay [2]. The assay is described as above. This is another data set of the same source.

Like-named read-outs stand apart in the source and are kept apart here. These are yes or no findings as the source states them, for the method shown. Binding seen in cells or lysates may run through a third protein. These calls come from enrichment with a bait or labelling near it, and not all partners need be listed.

On to “histone acetyltransferase 1 (HAT1), endogenous in NPC cells (from UniProt O14929 1-419) (enzyme)”, for which, in assay [1], the binding entry is “binds”.

B1: ACAT1, endogenous in SUNE1 cells (enzyme, UniProt P24752 34-427)
chain: VSKPTLKEVVIVSATRTPIGSFLGSLSLLPATKLGSIAIQGAIEKAGIPKEEVKEAYMGNVLQGGEGQAPTRQAVLGAGLPISTPCTTINKVCASGMKAIMMASQSLMCGHQDVMVAGGMESMSNVPYVMNRGSTPYGGVKLEDLIVKDGLTDVYNKIHMGSCAENTAKKLNIARNEQDAYAINSYTRSKAAWEAGKFGNEVIPVTVTVKGQPDVVVKEDEEYKRVDFSKVPKLKTVFQKENGTVTAANASTLNDGAAALVLMTADAAKRLNVTPLARIVAFADAAVEPIDFPIAPVYAASMVLKDVGLKKEDIAMWEVNEAFSLVVLANIKMLEIDPQKVNINGGAVSLGHPIGMSGARIVGHLTHALKQGEYGLASICNGGGGASAMLIQKL
For the molecule B1, the binding entry in assay [2] is on record as “binds”.

B2: F-box protein 10 (FBXO10), endogenous in NPC cells (protein, UniProt Q9UK96 1-956)
chain: MEAGGLPLELWRMILAYLHLPDLGRCSLVCRAWYELILSLDSTRWRQLCLGCTECRHPNWPNQPDVEPESWREAFKQHYLASKTWTKNALDLESSICFSLFRRRRERRTLSVGPGREFDSLGSALAMASLYDRIVLFPGVYEEQGEIILKVPVEIVGQGKLGEVALLASIDQHCSTTRLCNLVFTPAWFSPIMYKTTSGHVQFDNCNFENGHIQVHGPGTCQVKFCTFKNTHIFLHNVPLCVLENCEFVGSENNSVTVEGHPSADKNWAYKYLLGLIKSSPTFLPTEDSDFLMSLDLESRDQAWSPKTCDIVIEGSQSPTSPASSSPKPGSKAGSQEAEVGSDGERVAQTPDSSDGGLSPSGEDEDEDQLMYRLSYQVQGPRPVLGGSFLGPPLPGASIQLPSCLVLNSLQQELQKDKEAMALANSVQGCLIRKCLFRDGKGGVFVCSHGRAKMEGNIFRNLTYAVRCIHNSKIIMLRNDIYRCRASGIFLRLEGGGLIAGNNIYHNAEAGVDIRKKSNPLILCNQIHHGLRSGIVVLGNGKGIIRNNQIFSNKEAGIYILYHGNPVVSGNHIFKGRAAGIAVNENGKGLITENVIRENQWGGVDIRRGGIPVLRSNLICFGYSDGVVVGDEGKGLIEGNTIYANKGCGVWMMSSSLPHVTSNHVSYNGLYGVAVFSQKDGSSELPRGHRAQENFSEDGDAILWETELEKEDDPLRRPITIALVESNSINHNGASGLYVQSSEALHVITNVIHANGDRGITVAQSSQPTRVANNSISCNRQSGVKVEAQCKVELRGNGIYDNRGHGIITKGDSTIVIENDIIGNRGSGLQLLPRSDTKVIKNRIHSFRAYGIAVRGRAKALVQENIIFQGKTSKTIFQQISNNRECIMQNNKFLVFKKKSDTWRLVNPPARPHLENSLRRPSAAHNGQKVTAMATRITARVEGGYHSNRSVFCTIL
B2: the binding result in assay [2] is reported as “binds”.
